In publication PMC11055865:
Results are given in words; binding and its absence hold for the method and conditions named. Sequences can lack the tags named with a protein.

T1: FLAG-tagged MCM8 (human), Q9UJA3
T1 chain: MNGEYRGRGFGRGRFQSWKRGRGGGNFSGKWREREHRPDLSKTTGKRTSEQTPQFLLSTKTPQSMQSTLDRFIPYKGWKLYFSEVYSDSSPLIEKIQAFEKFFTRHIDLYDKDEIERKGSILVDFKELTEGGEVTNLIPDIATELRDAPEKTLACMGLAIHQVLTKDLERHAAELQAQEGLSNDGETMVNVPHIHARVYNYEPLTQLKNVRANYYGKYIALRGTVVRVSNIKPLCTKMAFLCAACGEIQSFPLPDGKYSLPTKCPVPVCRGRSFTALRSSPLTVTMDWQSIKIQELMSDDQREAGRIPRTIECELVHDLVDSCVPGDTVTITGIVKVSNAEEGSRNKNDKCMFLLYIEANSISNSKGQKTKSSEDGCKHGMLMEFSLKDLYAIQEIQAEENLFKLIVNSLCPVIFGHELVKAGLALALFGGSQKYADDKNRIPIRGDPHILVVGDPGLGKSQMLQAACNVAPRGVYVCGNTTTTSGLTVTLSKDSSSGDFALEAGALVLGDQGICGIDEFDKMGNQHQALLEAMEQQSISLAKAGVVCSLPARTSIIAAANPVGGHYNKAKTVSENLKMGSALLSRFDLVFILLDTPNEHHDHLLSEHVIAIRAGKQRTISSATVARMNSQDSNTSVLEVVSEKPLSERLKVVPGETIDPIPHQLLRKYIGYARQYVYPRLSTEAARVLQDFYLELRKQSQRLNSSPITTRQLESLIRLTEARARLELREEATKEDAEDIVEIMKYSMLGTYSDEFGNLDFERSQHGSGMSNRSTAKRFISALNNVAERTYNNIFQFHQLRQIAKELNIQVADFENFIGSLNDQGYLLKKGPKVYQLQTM


Columns and labels:
[1] = target: HROB-FLAG (wild type HROB, homologous recombination factor with OB-fold) (human) (UniProt Q8N3J3); assay: mass photometry; protein alone in solution, no DNA; 50-200 nM final protein in 50 mM Tris-HCl pH 7.5, 100 mM NaCl; oligomeric state of MCM8-9 unchanged with ATP-γ-S; both purified
[2] = target: T1, FLAG-tagged MCM8 (human), Q9UJA3; assay: as above; details: remark: other sources report otherwise

| Binder | binding [1] | binding [2] |
| --- | --- | --- |
| HROB-FLAG (wild type HROB, homologous recombination factor with OB-fold) (protein, UniProt Q8N3J3-4 1-646) MACSLQKLFAVEEEFEDEDFLSAVEDAENRFTGSLPVNAGRLRPVSSRPQETVQAQSSRLLLLHPTAPSEALGLPDLDLCLPASSTPSADSRPSCIGAAPLRPVSTSSSWIGNQRRVTVTEVLREPARPQSSALHPLLTFESQQQQVGGFEGPEQDEFDKVLASMELEEPGMELECGVSSEAIPILPAQQREGSVLAKKARVVDLSGSCQKGPVPAIHKAGIMSAQDESLDPVIQCRTPRPPLRPGAVGHLPVPTALTVPTQQLHWEVCPQRSPVQALQPLQAARGTIQSSPQNRFPCQPFQSPSSWLSGKAHLPRPRTPNSSCSTPSRTSSGLFPRIPLQPQAPVSSIGSPVGTPKGPQGALQTPIVTNHLVQLVTAASRTPQQPTHPSTRAKTRRFPGPAGILPHQQSGRSLEDIMVSAPQTPTHGALAKFQTEIVASSQASVEEDFGRGPWLTMKSTLGLDERDPSCFLCTYSIVMVLRKAALKQLPRNKVPNMAVMIKSLTRSTMDASVVFKDPTGEMQGTVHRLLLETCQNELKPGSVLLLKQIGVFSPSLRNHYLNVTPNNLVHIYSPDSGDGSFLKPSQPFPKDSGSFQHDVAAKPEEGFRTAQNLEAEASPEEELPEADDLDGLLSELPEDFFCGTSS | no binding |  |
| FLAG-tagged MCM8, Q9UJA3 1-840 (protein) MNGEYRGRGFGRGRFQSWKRGRGGGNFSGKWREREHRPDLSKTTGKRTSEQTPQFLLSTKTPQSMQSTLDRFIPYKGWKLYFSEVYSDSSPLIEKIQAFEKFFTRHIDLYDKDEIERKGSILVDFKELTEGGEVTNLIPDIATELRDAPEKTLACMGLAIHQVLTKDLERHAAELQAQEGLSNDGETMVNVPHIHARVYNYEPLTQLKNVRANYYGKYIALRGTVVRVSNIKPLCTKMAFLCAACGEIQSFPLPDGKYSLPTKCPVPVCRGRSFTALRSSPLTVTMDWQSIKIQELMSDDQREAGRIPRTIECELVHDLVDSCVPGDTVTITGIVKVSNAEEGSRNKNDKCMFLLYIEANSISNSKGQKTKSSEDGCKHGMLMEFSLKDLYAIQEIQAEENLFKLIVNSLCPVIFGHELVKAGLALALFGGSQKYADDKNRIPIRGDPHILVVGDPGLGKSQMLQAACNVAPRGVYVCGNTTTTSGLTVTLSKDSSSGDFALEAGALVLGDQGICGIDEFDKMGNQHQALLEAMEQQSISLAKAGVVCSLPARTSIIAAANPVGGHYNKAKTVSENLKMGSALLSRFDLVFILLDTPNEHHDHLLSEHVIAIRAGKQRTISSATVARMNSQDSNTSVLEVVSEKPLSERLKVVPGETIDPIPHQLLRKYIGYARQYVYPRLSTEAARVLQDFYLELRKQSQRLNSSPITTRQLESLIRLTEARARLELREEATKEDAEDIVEIMKYSMLGTYSDEFGNLDFERSQHGSGMSNRSTAKRFISALNNVAERTYNNIFQFHQLRQIAKELNIQVADFENFIGSLNDQGYLLKKGPKVYQLQTM |  | no binding |
